Experimental data from patent US20250228855A1, “PYRAZINAMIDE COMPOUNDS” (The General Hospital Corporation, priority 2022, published 2025).

Tested on: P. falciparum Dd2-2D4
Experiment: NCP26 resistance susceptibility and resistance selection
Assay type: cell-based, Plasmodium falciparum

O=C(NC1Cc2ccccc2C1)c1nccnc1NC(=O)N1CCCCC1 [NCP26 (3), N-(2,3-dihydro-1H-inden-2-yl)-3-(piperidine-1-carboxamido)pyrazine-2-carboxamide]
timeframe for resistance to arise (in vitro selection, 4×EC50, large population size): > 50 generations
induction of rapid resistance (wild-type parasites, intermittent drug pressure): did not induce rapid resistance
